Results reported in PMC11978164.
Results are given in words; binding and its absence hold for the method and conditions named. In cells and extracts the contact can be indirect. Here binding means that the protein was enriched with, or labelled near, the bait; the list need not be complete.

Sequences of proteins named here, by UniProt entry; tags and fusion partners are left off.
UniProt Q13263: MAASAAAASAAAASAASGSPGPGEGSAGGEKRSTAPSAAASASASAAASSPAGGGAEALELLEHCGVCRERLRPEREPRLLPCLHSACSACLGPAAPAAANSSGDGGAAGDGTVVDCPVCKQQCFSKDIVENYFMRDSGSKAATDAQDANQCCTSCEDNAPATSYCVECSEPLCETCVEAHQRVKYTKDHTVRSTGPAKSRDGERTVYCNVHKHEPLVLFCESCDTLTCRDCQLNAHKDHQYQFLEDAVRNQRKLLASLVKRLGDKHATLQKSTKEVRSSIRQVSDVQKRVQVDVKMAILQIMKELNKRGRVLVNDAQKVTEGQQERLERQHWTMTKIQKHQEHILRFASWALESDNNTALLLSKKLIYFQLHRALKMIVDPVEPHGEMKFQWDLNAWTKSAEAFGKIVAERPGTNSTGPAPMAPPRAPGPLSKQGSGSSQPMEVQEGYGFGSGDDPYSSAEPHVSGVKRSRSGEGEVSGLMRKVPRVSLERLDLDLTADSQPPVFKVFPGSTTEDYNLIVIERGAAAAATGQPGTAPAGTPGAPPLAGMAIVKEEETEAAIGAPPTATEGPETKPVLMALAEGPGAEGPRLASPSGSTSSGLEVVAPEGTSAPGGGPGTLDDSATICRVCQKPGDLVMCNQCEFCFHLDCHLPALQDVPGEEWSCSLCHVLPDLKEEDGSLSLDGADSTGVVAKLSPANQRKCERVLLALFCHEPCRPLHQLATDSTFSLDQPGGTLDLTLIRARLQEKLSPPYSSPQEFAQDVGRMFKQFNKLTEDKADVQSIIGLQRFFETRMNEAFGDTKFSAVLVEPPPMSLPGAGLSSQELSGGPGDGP
UniProt P63104: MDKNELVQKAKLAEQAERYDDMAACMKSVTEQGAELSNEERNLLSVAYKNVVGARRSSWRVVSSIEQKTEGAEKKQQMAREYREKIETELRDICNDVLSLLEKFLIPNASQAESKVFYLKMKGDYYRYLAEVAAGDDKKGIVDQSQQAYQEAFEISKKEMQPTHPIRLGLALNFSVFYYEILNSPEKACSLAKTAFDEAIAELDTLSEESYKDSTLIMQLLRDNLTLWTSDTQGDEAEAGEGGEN

Biological target: TRIM28 (human (endogenous in ARP1, RPMI 8226, U266)) (UniProt Q13263)
Test: affinity purification with mass spectrometry; IP/MS with anti-TRIM28 antibody in ARP1 cells; precipitate stained with Coomassie brilliant blue

14-3-3ζ (from UniProt P63104 1-245)
binding: binds
